Source: PubChem BioAssay AID602196 (INSERM, 2012)
This is an unselected part of about 23,000 reagents tested. Over the whole deposit, 455 (2%) are marked active. 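Active includes both protection and sensitisation; some change values fall well beyond the stated -50 to +50 range.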 Reagents against one gene are numbered here. Reagent sequences are not shown. Not stated in the record: the amount of reagent.

Screen: 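Knock-downs that protect lung cancer cells from cisplatin or sensitise them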
System: human A549 lung cancer cells
Knock-down reagent: siRNA pair against human genes
Time to read-out: 48 h transfection before cisplatin; time from cisplatin to read-out not stated
Treatment: cisplatin at a dose killing half of control-siRNA cells; exact dose and duration not given
Read-out: 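Cisplatin cell death as a shift from the 50% death seen with control siRNA; siRNAs toxic or growth-blocking alone scored 0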
Reading the numbers: two-siRNA summed score (-2 to +2): higher = both siRNAs protect from cisplatin killing; -2 means both sensitise; mean protection from cisplatin (shift in death) and protection from cisplatin (shift in death), siRNA C and protection from cisplatin (shift in death), siRNA D: higher = protection from cisplatin killing
Active means: 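siRNAs harmful alone (LDH or WST-1) get 0; others get +1 for less and -1 for more cisplatin killing; genes are active when the two siRNAs give the same sign, summing to ±2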
Calls: active = both siRNAs shift cisplatin killing the same way; inactive = no consistent shift, or siRNA harmful alone

target	reagent no.	two-siRNA summed score (-2 to +2)	mean protection from cisplatin (shift in death) (%)	protection from cisplatin (shift in death), siRNA C (%)	protection from cisplatin (shift in death), siRNA D (%)	Outcome
EMP1 (epithelial membrane protein 1)	1	1	30.3	40.9	19.7	inactive
PPM1K (protein phosphatase, Mg2+/Mn2+ dependent 1K)	1	0	1	3.6	-1.5	inactive
LOC400606	1	0	-9.3	-14.9	-3.8	inactive
CBARP (CACN subunit beta associated regulatory protein)	1	0	8.1	17.6	-1.4	inactive
LOC442430	1	1	6.5	-6.8	19.8	inactive
NSDHL (NAD(P) dependent 3-beta-hydroxysteroid dehydrogenase NSDHL)	1	0	-16.4	-26	-6.9	inactive
KMT2C (lysine methyltransferase 2C)	1	0	9.8	12.4	7.1	inactive
CPT1C (carnitine palmitoyltransferase 1C)	1	0	2.5	10.2	-5.1	inactive
WNT8B (Wnt family member 8B)	1	0	8.3	9.3	7.3	inactive
APMAP (adipocyte plasma membrane associated protein)	1	0	-3.4	1.3	-8.2	inactive
NAIP (NLR family apoptosis inhibitory protein)	1	0	10.1	6.9	13.2	inactive
PLEK (pleckstrin)	1	-1	-20.7	-44.2	2.7	inactive
MYD88 (MYD88 innate immune signal transduction adaptor)	1	0	-7	-12.7	-1.3	inactive
SMAD6 (SMAD family member 6)	1	-1	-17.3	-15.2	-19.5	inactive
SAAL1 (serum amyloid A like 1)	1	0	-3.5	-3.6	-3.4	inactive
ZNF467 (zinc finger protein 467)	1	0	-3.8	6.1	-13.8	inactive
MAGEB1 (MAGE family member B1)	1	1	6.8	-11.9	25.4	inactive
KCNJ12 (potassium inwardly rectifying channel subfamily J member 12)	1	0	1.9	-10.6	14.5	inactive
REM2 (RRAD and GEM like GTPase 2)	1	0	26.9	46.6	7.2	inactive
NFE2L2 (NFE2 like bZIP transcription factor 2)	1	0	8.9	14.5	3.3	inactive
HSPA4L (heat shock protein family A (Hsp70) member 4 like)	1	1	6	-2.7	14.7	inactive
ANKRD55 (ankyrin repeat domain 55)	1	0	3.6	-3.5	10.8	inactive
CEP83 (centrosomal protein 83)	1	0	5	6.7	3.3	inactive
KATNBL1 (katanin regulatory subunit B1 like 1)	1	0	2.7	-1.1	6.5	inactive
NSUN4 (NOP2/Sun RNA methyltransferase 4)	1	0	2	2.8	1.3	inactive
GSTA5 (glutathione S-transferase alpha 5)	1	0	0.6	0.8	0.4	inactive
RHBDF1P1 (RHBDF1 pseudogene 1)	1	0	-9.2	-7	-11.4	inactive
PLP1 (proteolipid protein 1)	1	0	-6.6	-8.1	-5.1	inactive
LOC387890	1	1	23.5	27.2	19.7	inactive
RAB7B (RAB7B, member RAS oncogene family)	1	0	11.7	11.5	11.9	inactive
LOC440432	1	0	7.6	-2.5	17.7	inactive
ETFDH (electron transfer flavoprotein dehydrogenase)	1	0	9.2	10.7	7.6	inactive
RILPL2 (Rab interacting lysosomal protein like 2)	1	0	8.9	14.2	3.6	inactive
TLE2 (TLE family member 2, transcriptional corepressor)	1	0	8.9	9.5	8.4	inactive
PUM2 (pumilio RNA binding family member 2)	1	0	9.6	17.3	1.9	inactive
CLDN3 (claudin 3)	1	-1	-30.2	-23.8	-36.5	inactive
SDHA (succinate dehydrogenase complex flavoprotein subunit A)	1	0	2.8	20.6	-15	inactive
GK (glycerol kinase)	1	1	9.2	20.5	-2	inactive
FLJ37266	1	-1	-5.1	5.6	-15.9	inactive
RIF1 (replication timing regulatory factor 1)	1	0	7	1.7	12.4	inactive
LOC400740	1	0	4.4	11	-2.2	inactive
ATOH7 (atonal bHLH transcription factor 7)	1	0	5.5	2.1	8.9	inactive
ALPI (alkaline phosphatase, intestinal)	1	1	19.1	21.8	16.4	inactive
CD34 (CD34 molecule)	1	1	-8.6	-36.6	19.5	inactive
GSS (glutathione synthetase)	1	-1	-4.1	8.2	-16.3	inactive
VPS36 (vacuolar protein sorting 36 homolog)	1	0	6.5	12.2	0.8	inactive
PRPSAP2 (phosphoribosyl pyrophosphate synthetase associated protein 2)	1	0	-0.8	-2.2	0.7	inactive
SRI (sorcin)	1	0	7.7	8.1	7.3	inactive
KIAA1076	1	0	0.3	1.2	-0.5	inactive
FGFR1OP2 (FGFR1 oncogene partner 2)	1	-1	-18.8	-13	-24.6	inactive
POU3F1 (POU class 3 homeobox 1)	1	1	17.3	27.7	6.9	inactive
CDCA5 (cell division cycle associated 5)	1	0	-5.2	-14	3.6	inactive
CDCA5 (cell division cycle associated 5)	2	0	1.3	7.7	-5.1	inactive
NEFM (neurofilament medium chain)	1	0	1.1	-4.7	6.9	inactive
PDE1C (phosphodiesterase 1C)	1	-1	2.2	17.1	-12.6	inactive
SOX10 (SRY-box transcription factor 10)	1	0	-6.9	-4.2	-9.5	inactive
HIC2 (HIC ZBTB transcriptional repressor 2)	1	0	10.7	16.4	5.1	inactive
NOL8 (nucleolar protein 8)	1	1	7.6	-9.6	24.8	inactive
CDC42SE1 (CDC42 small effector 1)	1	0	3.8	5.6	2.1	inactive
EXOC7 (exocyst complex component 7)	1	-2	-26.7	-22.9	-30.6	active
KDM4B (lysine demethylase 4B)	1	-1	-25.4	-38.4	-12.4	inactive
CENPX (centromere protein X)	1	2	17.5	12.3	22.7	active
APOL1 (apolipoprotein L1)	1	0	4.4	8.6	0.2	inactive
BPIFB1 (BPI fold containing family B member 1)	1	1	26.4	32.8	20	inactive
PRKN (parkin RBR E3 ubiquitin protein ligase)	1	0	8.5	-1.3	18.3	inactive
LOC390616	1	-1	2.4	-5.8	10.5	inactive
ARFGEF3 (ARFGEF family member 3)	1	1	16.8	25.3	8.3	inactive
DYM (dymeclin)	1	0	-5.6	-13.9	2.7	inactive
TMOD4 (tropomodulin 4)	1	0	2.8	5.2	0.3	inactive
RHEB (Ras homolog, mTORC1 binding)	1	0	8.1	12.5	3.8	inactive
ADNP (activity dependent neuroprotector homeobox)	1	0	-10	-14.8	-5.2	inactive
ZNF407-AS1 (ZNF407 antisense RNA 1)	1	0	5.3	-2.4	12.9	inactive
PPP6C (protein phosphatase 6 catalytic subunit)	1	0	-3.1	2	-8.2	inactive
